According to US20260231994A1, “TASTE-ENHANCING COMPOSITION, METHOD FOR PRODUCING SAME, FOOD PRODUCT, AND METHOD FOR ENHANCING TASTE OF FOOD PRODUCT” (HOUSE FOODS GROUP INC., priority 2023, published 2026):

Key:
[1] = Constituent analysis of unheated and heat-treated coriander by LC-MS/MS (peak area ratio to internal standard); details: for Heated Average value, content of cyclic dipeptide (area ratio to standard peak area): heat-treated coriander (250° C. for 6 min); for Heated Average value, content of cyclic dipeptide (area ratio to standard peak area) / Unheated Average value, content of cyclic dipeptide (area ratio to standard peak area): internal standard 47 μg/g L-lysine-13C6 monohydrochloride, n=2; for Magnification (heated/unheated): increase of cyclic dipeptide content in coriander by heating; for Unheated Average value, content of cyclic dipeptide (area ratio to standard peak area): unheated coriander
[2] = Constituent analysis of paprika samples by LC-MS/MS (peak area ratio to internal standard); details: constituent specific to heat-treated paprika

Substance | Heated Average value, content of cyclic dipeptide (area ratio to standard peak area) [1] | Magnification (heated/unheated) [1] | Unheated Average value, content of cyclic dipeptide (area ratio to standard peak area) [1] | content in unheated paprika [2]
cyclic (Phe-Pro) [Coriander ID 40] | 0.385 | 10.2 | 0.038 | 
cyclic (Gly-Ser) [Coriander ID 5] |  |  |  | below detection limit
cyclic (Ala-Leu/Ile) [Coriander ID 32] | 0.645 | 22.4 | 0.029 | 
cyclic (Ala-Val) [Coriander ID 27] | 0.710 | 16.3 | 0.044 | 
cyclic (Leu/Ile-Val) [Coriander ID 42] | 1.345 | 26.3 | 0.051 | 
cyclic (Phe-Ala) [Coriander ID 33] | 0.722 | 5.0 | 0.145 | 
cyclic (Arg-Pro) [Coriander ID 45] | 0.028 |  |  | 
cyclic (Pro-His) [Coriander ID 15] | 0.010 |  |  | 
cyclic (Ala-Asp) [Coriander ID 58] |  |  |  | below detection limit
cyclic (Pro-Met) [Coriander ID 53] | 0.142 | 6.7 | 0.021 | 
cyclic (Pro-Val) [Coriander ID 29] | 0.341 | 34.3 | 0.010 | 
cyclic (Pro-Pro) + cyclic (hyPro-Pro) [Ex. 8] | 0.297 | 11.4 | 0.026 | 
cyclic (Gly-His) [Coriander ID 4] |  |  |  | below detection limit
cyclic (hyPro-Leu) + cyclic (hyPro-Ile) cyclic (Pro-Leu) + cyclic (Pro-Ile) [Ex. 13] | 0.136 | 24.5 | 0.006 | 
cyclic (Thr-Pro) [Coriander ID 14] | 0.833 | 38.6 | 0.022 | 
cyclic (Ala-Pro) [Coriander ID 23] | 0.122 | 39.7 | 0.003 | 
cyclic (Gly-Val) [Coriander ID 21] | 0.208 |  |  | below detection limit
cyclic (hyPro-Pro) [Coriander ID 17] |  |  |  | below detection limit
cyclic (Tyr-Asp) |  |  |  | below detection limit
